In paper PMC3105097:
Results are given in words; binding and its absence hold for the method and conditions named. Binding seen in cells or lysates may run through a third protein. Some results given as binding are weak or reduced against the parent protein; the word gives no strength. For some of these results: Tags and fused reporters may be left off the sequences shown.

T1: FWS-GFP (GFP-tagged Four Way Stop) (Drosophila) (UniProt Q9VJD3)
T1 sequence: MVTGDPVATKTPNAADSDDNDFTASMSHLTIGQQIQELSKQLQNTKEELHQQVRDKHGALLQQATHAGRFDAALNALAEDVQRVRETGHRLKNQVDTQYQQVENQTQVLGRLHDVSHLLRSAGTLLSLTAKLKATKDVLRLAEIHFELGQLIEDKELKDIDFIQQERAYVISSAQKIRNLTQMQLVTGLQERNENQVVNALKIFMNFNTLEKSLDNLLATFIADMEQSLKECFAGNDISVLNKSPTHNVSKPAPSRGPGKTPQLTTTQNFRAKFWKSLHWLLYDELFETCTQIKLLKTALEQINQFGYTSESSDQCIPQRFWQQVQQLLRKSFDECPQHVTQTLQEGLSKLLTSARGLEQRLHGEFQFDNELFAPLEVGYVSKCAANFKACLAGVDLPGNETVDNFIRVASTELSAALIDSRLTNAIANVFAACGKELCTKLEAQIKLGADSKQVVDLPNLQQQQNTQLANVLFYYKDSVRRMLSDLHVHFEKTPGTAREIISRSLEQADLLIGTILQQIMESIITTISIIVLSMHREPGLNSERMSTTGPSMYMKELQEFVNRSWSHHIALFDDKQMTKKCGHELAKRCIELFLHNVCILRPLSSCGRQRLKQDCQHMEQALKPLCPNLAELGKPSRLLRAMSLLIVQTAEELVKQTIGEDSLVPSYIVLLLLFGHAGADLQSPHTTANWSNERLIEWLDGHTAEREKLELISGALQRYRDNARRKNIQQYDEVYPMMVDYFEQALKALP

T2: Drosophila Ge-1 (dGe-1) (Drosophila melanogaster (endogenous in ovaries)) (UniProt Q9VKK1)
T2 sequence: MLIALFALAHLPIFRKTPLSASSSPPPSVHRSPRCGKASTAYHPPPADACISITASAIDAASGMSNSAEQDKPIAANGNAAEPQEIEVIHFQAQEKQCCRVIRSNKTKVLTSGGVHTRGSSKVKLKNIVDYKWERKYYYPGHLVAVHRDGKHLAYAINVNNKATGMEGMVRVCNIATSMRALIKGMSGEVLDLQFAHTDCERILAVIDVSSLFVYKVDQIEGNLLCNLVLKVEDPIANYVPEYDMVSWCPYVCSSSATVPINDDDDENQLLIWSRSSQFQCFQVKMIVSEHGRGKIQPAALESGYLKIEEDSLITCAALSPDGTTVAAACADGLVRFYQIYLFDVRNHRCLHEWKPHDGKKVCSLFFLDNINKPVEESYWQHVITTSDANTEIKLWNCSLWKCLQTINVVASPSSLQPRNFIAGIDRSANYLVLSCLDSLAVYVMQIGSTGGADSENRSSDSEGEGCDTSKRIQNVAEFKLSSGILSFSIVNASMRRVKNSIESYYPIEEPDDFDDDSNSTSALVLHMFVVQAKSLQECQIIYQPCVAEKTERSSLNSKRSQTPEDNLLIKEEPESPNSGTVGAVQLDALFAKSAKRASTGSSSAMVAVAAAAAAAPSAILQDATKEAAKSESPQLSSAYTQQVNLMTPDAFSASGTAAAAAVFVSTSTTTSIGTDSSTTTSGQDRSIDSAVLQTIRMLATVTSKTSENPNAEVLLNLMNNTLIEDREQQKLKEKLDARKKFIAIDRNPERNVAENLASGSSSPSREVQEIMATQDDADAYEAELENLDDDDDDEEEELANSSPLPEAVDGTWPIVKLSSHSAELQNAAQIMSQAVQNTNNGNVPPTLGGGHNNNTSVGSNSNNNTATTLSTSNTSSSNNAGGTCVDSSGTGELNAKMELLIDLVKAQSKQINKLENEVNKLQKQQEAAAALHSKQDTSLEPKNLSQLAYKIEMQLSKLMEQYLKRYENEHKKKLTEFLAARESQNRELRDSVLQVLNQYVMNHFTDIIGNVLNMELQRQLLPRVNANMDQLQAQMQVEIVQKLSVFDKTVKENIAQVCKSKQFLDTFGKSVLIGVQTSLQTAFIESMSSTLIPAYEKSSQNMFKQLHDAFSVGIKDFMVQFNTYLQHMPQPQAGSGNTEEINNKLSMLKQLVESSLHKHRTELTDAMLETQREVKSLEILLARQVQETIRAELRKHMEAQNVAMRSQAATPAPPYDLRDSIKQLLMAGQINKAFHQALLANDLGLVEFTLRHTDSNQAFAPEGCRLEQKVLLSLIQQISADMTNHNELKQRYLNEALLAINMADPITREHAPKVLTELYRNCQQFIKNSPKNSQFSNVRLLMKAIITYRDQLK


Tests used:
[1] = target: T1, FWS-GFP (GFP-tagged Four Way Stop) (Drosophila); assay: co-IP; anti-GFP (rabbit) immunoprecipitation from ovarian extracts of YFP-dDcp1 or FWS-GFP flies in DXB-150 buffer, 4°C; six washes; western blot of the bound proteins
[2] = target: T2, Drosophila Ge-1 (dGe-1) (Drosophila melanogaster (endogenous in ovaries)); assay: co-IP; endogenous dGe-1 immunoprecipitated from wt ovarian extract with rabbit anti-dGe-1 coupled to protein A sepharose, antibody pre-incubated or not with dGe-1 blocking peptide; DXB-150 buffer, 2 h at 4°C; western blot

Binder	binding [1]	binding [2]
Me31B (protein, UniProt P23128 1-459) MMTEKLNSGHTNLTSKGIINDLQIAGNTSDDMGWKSKLKLPPKDNRFKTTDVTDTRGNEFEEFCLKRELLMGIFEKGWERPSPIQEAAIPIALSGKDVLARAKNGTGKTGAYCIPVLEQIDPTKDYIQALVMVPTRELALQTSQICIELAKHLDIRVMVTTGGTILKDDILRIYQKVQLIIATPGRILDLMDKKVADMSHCRILVLDEADKLLSLDFQGMLDHVILKLPKDPQILLFSATFPLTVKNFMEKHLREPYEINLMEELTLKGVTQYYAFVQERQKVHCLNTLFSKLQINQSIIFCNSTQRVELLAKKITELGYCCYYIHAKMAQAHRNRVFHDFRQGLCRNLVCSDLFTRGIDVQAVNVVINFDFPRMAETYLHRIGRSGRFGHLGIAINLITYEDRFDLHRIEKELGTEIKPIPKVIDPALYVANVGASVGDTCNNSDLNNSANEEGNVSK	no binding	binds
Exu (protein, UniProt P28750 1-532) MVADNIDAGVAIAVADQSSSPVGDKVELPAGNYILVGVDIDTTGRRLMDEIVQLAAYTPTDHFEQYIMPYMNLNPAARQRHQVRVISIGFYRMLKSMQTYKIIKSKSEIAALKDFLNWLEQLKTKAGPSSDGIVLIYHEERKFIPYMILESLKKYGLLERFTASVKSFANSINLAKASIGDANIKNYSLRKLSKILSTTKEEDAACSASTSGSGSGLGSGSSMVSDSVSISPRDSTVTNGDDKQSSKNAVQGKRELFDGNASVRAKLAFDVALQLSNSDGKPEPKSSEALENMFNAIRPFAKLVVSDVLELDIQIENLERQNSFRPVFLNYFKTTLYHRVRAVKFRIVLAENGFDLNTLSAIWAEKNIEGLDIALQSIGRLKSKDKAELLELLDSYFDPKKTTVKPVVKGNSNNNNNYRRRNRRGGRQSVKDARPSSSPSASTEFGAGGDKSRSVSSLPDSTTKTPSPNKPRMHRKRNSRQSLGATPNGLKVAAEISSSGVSELNNSAPPAVTISPVVAQPSPTPVAITASN	no binding	binds
